PubChem BioAssay AID1508597 – Cure First – 2020

Aim: 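Genes whose silencing sensitises or protects ovarian cancer cells against rucaparib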 (primary screen)
Cells: human ovarian carcinoma lines grown from tumours: OCI-P5x (papillary serous) and OCI-C5x (clear cell)
Knock-down reagent: siRNA pool against human genes, 1.25 pmol siRNA per well
Duration: 72 h or 96 h, depending on the cell culture
Conditions: rucaparib 20 µM (about IC30) or vehicle, present until read-out
Rucaparib or vehicle: Rucaparib
Cell line: OCI-P5x (serous)
Read-out: 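Luminescent ATP-based viability assay read 72 or 96 h after transfection, depending on culture, given as normalised percent viability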
Direction: viability, normalised: higher = more viable cells remaining
Active means: 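Active when normalised viability falls below 80 percent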
Meaning of the calls: active = viability under 80%; inactive = viability 80% or more
This is an unselected part of the about 2,100 reagents, under one of the conditions tested. 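Calls flag viability under 80% in either arm, not effects specific to rucaparib; the reference for percent is not stated.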 A reagent listed more than once was tested more than once; the source does not tell the runs apart. The record does not give: the 100% reference.

The opening 6 records as a preview:
| gene knocked down | technical replicate | viability, normalised (%) | Call |
| --- | --- | --- | --- |
| BARD1 | 1 | 58.2 | active |
| BARD1 | 2 | 56.5 | active |
| BARD1 | 3 | 64.4 | active |
| RPH3A | 1 | 33.8 | active |
| RPH3A | 2 | 42.3 | active |
| RPH3A | 3 | 37.3 | active |

Main list, from the start:
| gene knocked down | technical replicate | viability, normalised (%) | Call |
| --- | --- | --- | --- |
| BARD1 | 1 | 58.2 | active |
| BARD1 | 2 | 56.5 | active |
| BARD1 | 3 | 64.4 | active |
| RPH3A | 1 | 33.8 | active |
| RPH3A | 2 | 42.3 | active |
| RPH3A | 3 | 37.3 | active |
| TONSL | 1 | 60.6 | active |
| TONSL | 2 | 55.9 | active |
| TONSL | 3 | 60.3 | active |
| IGHMBP2 | 1 | 58.7 | active |
| IGHMBP2 | 1 | 42.6 | active |
| IGHMBP2 | 2 | 72.3 | active |
| IGHMBP2 | 2 | 64.1 | active |
| IGHMBP2 | 3 | 76.5 | active |
| IGHMBP2 | 3 | 58.4 | active |
| POU5F1B | 1 | 64.9 | active |
| POU5F1B | 2 | 57.5 | active |
| POU5F1B | 3 | 65.8 | active |
| JMJD4 | 1 | 65.6 | active |
| JMJD4 | 2 | 51 | active |
| JMJD4 | 3 | 59.4 | active |
| CHAF1B | 1 | 84.2 | inactive |
| CHAF1B | 1 | 54.8 | active |
| CHAF1B | 2 | 91.5 | inactive |
| CHAF1B | 2 | 70.7 | active |
| CHAF1B | 3 | 74.6 | active |
| CHAF1B | 3 | 67.1 | active |
| PRDM1 | 1 | 29.7 | active |
| PRDM1 | 2 | 48 | active |
| PRDM1 | 3 | 44.3 | active |
| NTRK3 | 1 | 112 | inactive |
| NTRK3 | 2 | 110 | inactive |
| NTRK3 | 3 | 94.7 | inactive |
| STK10 | 1 | 53.9 | active |
| STK10 | 2 | 51.8 | active |
| STK10 | 3 | 75.6 | active |
| PKN2 | 1 | 49 | active |
| PKN2 | 2 | 72.9 | active |
| PKN2 | 3 | 71.1 | active |
| PCDHB2 | 1 | 41.7 | active |
| PCDHB2 | 2 | 43.7 | active |
| PCDHB2 | 3 | 47.6 | active |
| AK5 | 1 | 95 | inactive |
| AK5 | 2 | 95.5 | inactive |
| AK5 | 3 | 102 | inactive |
| MSH6 | 1 | 67.4 | active |
| MSH6 | 1 | 89.5 | inactive |
| MSH6 | 2 | 64.2 | active |
| MSH6 | 2 | 92.9 | inactive |
| MSH6 | 3 | 101 | inactive |
| MSH6 | 3 | 75 | active |
| CDK15 | 1 | 94.9 | inactive |
| CDK15 | 2 | 45.7 | active |
| CDK15 | 3 | 93.3 | inactive |
| ARSA | 1 | 64.3 | active |
| ARSA | 2 | 98.6 | inactive |
| ARSA | 3 | 84.2 | inactive |
| EPAS1 | 1 | 62.6 | active |
| EPAS1 | 2 | 61.2 | active |
| EPAS1 | 3 | 77.9 | active |
| PHF8 | 1 | 43.1 | active |
| PHF8 | 2 | 47.6 | active |
| PHF8 | 3 | 49.8 | active |
| MAP3K1 | 1 | 122 | inactive |
| MAP3K1 | 2 | 115 | inactive |
| MAP3K1 | 3 | 90.3 | inactive |
| CCNH | 1 | 66.9 | active |
| CCNH | 2 | 71.6 | active |
| CCNH | 3 | 56.1 | active |
| LPP | 1 | 69.4 | active |
| LPP | 2 | 66.3 | active |
| LPP | 3 | 84.5 | inactive |
| DPH3 | 1 | 52.1 | active |
| DPH3 | 2 | 53.5 | active |
| DPH3 | 3 | 46.6 | active |
